Results reported in patent publication US20050069542A1 (Human Genome Sciences, published 2005).
Results are given in words; binding and its absence hold for the method and conditions named. Some binding calls cover weakened binding; strength is not graded here.

The chains behind the UniProt entries cited, without tags or fusion partners. Where a name states a change or a piece, a line headed by the entry shows the natural chain unless it says otherwise.
UniProt Q9HD89: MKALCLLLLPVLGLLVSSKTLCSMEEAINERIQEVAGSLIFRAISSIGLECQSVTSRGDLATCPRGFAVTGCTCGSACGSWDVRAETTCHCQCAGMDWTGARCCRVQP

B1: GMBC666 (scFv)
scFv: EVQLVESGGGLAKPGESLRLSCEASGFEFNYAWMSWVRQAPGKGLEWVGRSRSEASGGTTDYAAPLQDRFTISRDDSKNTLYLQVNSLKIEDTGVYFCKWEKSEYYGMDVWGKGTMVTVSSGGGGSGGGGSGGGGSQSVLTQPPSVSAAPGQKVTISCSGSTSNIGNNYVSWYQQHPGKAPKLMIYDVSKRPSGVPDRFSGSKSGNSASLDISGLQSEDEADYYCAAWDDSLSEFLFGTGTKLTVLG
B2: GMBC610 (scFv)
scFv: QVTLKESGAEVKKPGASVKVSCKTSGFTFGAYYIHWVRQVPGQGLEWMGWIDPNNGGTNYAQKFQGRVTMTRDMSTTTTYMEVSGLHSDDTAVYYCARARVATILEYWGRGTLVTVSSGGGGSGGGGSGGGGSPELTQDPAVSVALGQTVRITCQGDSLRSYYASWYQQKPGQAPVLVIYGKNNRPSGIPDRFSGSSSGNTASLTITGAQAEDEADYYCNSRDSSGNHVVFGGGTKLTVLG
B3: GMBC612 (scFv)
scFv: EVQLVESGGGVVQPGGSLRLSCAASGFSFSSYGMQWVRQAPGKGLEWVAFIRYDGSIKYYADSVKGRFTVSRDNSKNTLYLQMNSLRAEDTAVYYCARGYRIVDYWGQGTLVTVSSGGGGSGGGGSGGGGSDIQMTQSPSTLSPSIGDRVTITCRASEGIYHWLAWYQQKPGKAPKLLIYKASSLASGAPSRFSGSGSGTDFTLTISSLQPDDFATYYCQQYSNYPLTFGGGTKLEIKR
B4: GMBC617 (scFv)
scFv: EVQLVETGGGLVQPGGSLRLSCAASGFTVSSNYMSWVRQAPGKGLEWVSVIYSGGSTYYADSVKGRFTISRHNSKNTLYLQMNSLRAEDTAVYYCARGLWFGELLYWGQGTLVTVSSGGGGSGGGGSGGGGSQSALTQPASVSGSRGQSITISCTGTTGDVGGYDYVSWYQQHPGKAPKLLIYGNSNRPSGVPDRFSASKSGNTASLTISGLQAEDEADYFCSTYAPPGIIMFGGGTKLTVLG
B5: GMBC618 (scFv)
scFv: EVQLVQSGGGLVKPGGSLRLSCAASGFKFDDAWMNWVRQAPGKGLEWVGRIKSKRSGGTIDYAAPVKDRFTISRDDSKNTLYLQMNSLRTEDTALYYCTWDWDFYYGMNVWGRGTLVTVSSGGGGSGGGGSGGGGSQSVLTQPPSASGTPGQRVTISCSGSSSNIGSNTVNWYQRLPGAAPQLLIYNNDQRPSGIPDRFSGSKSGTSGSLVISGLQSEDEADYYCASWDDSLNGRVFGGGTKLTVLG
B6: GMBC619 (scFv)
scFv: EVQLVESGGGVVQPGRSLRLSCAASGFTFRSYGMHWVRQAPGKGLEWVAVITYDGSNKYYADSVKGRFTISRDNSKNTLYLQMNSLRADDTAVYYCARDGGGWYHPRLDYWGQGTMVTVSSGGGGSGGGGSGGGGSSELTQDPAVSVALGQTVRITCQGDSLRSYYASWYQQKPGQAPVLVIYGKNNRPSGIPDRFSGSSSGNTASLTITGAQAEDEADYYCNSRDSSGNHVVFGGGTKLTVLG
B7: GMBC621 (scFv)
scFv: EVQLVQSGGGVVQPGRSLRLSCAASGFTFSSYGMHWVRQAPGKGLEWVAVISYDGSNKYYADSVKGRFTISRDNSKNTLYLQMDSLRAEDTAVYFCAKRGLWTPIDYWGKGTLVTVSSGGGGSGGGGSGGGGSSELTQDPAVSVALGQTVRITCQGDSLRSYYASWYQQKPGQAPVLVIYGKNNRPSGIPDRFSGSNSGNTASLTITGAQAEDEADYYCNSRDSSGNHVVFGGGTKLTVLG

What was measured:
[1] = target: Flag-tagged recombinant human GMAD (human) (UniProt Q9HD89); assay: phage display selection of scFvs
[2] = target: Flag-tagged recombinant human GMAD (human) (UniProt Q9HD89); assay: phage ELISA

| Binder | binding [1] | binding [2] |
| --- | --- | --- |
| B1 | binds | binds |
| B2 | binds | binds |
| B3 | binds | binds |
| B4 | binds | binds |
| B5 | binds | binds |
| B6 | binds | binds |
| B7 | binds | binds |
